Assay results taken from paper PMC5714945, “A homologue of the Parkinson’s disease-associated protein LRRK2 undergoes a monomer-dimer transition during GTP turnover” (Nature Communications, 2017).
Residue numbers refer to the chain shown, from its start. In names and notes the source's numbering stands. These are yes or no findings as the source states them, for the method shown. Some binding calls cover weakened binding; strength is not graded here. Blank lines part the entries; values can stand above or below the binder they belong to.

Experiments:
[1] = target: Roco protein from Chlorobium tepidum (CtRoco), full length (Chlorobium tepidum) (UniProt Q8KC98); assay: SEC-SAXS; GppNHp-bound: pre-incubated with 1 mM GppNHp, 200 µM GppNHp in the buffer; 50 µl of 8 mg ml^-1 injected on a Bio SEC-3 column; 20 mM Hepes pH 7.5, 150 mM NaCl, 5 mM MgCl2, 5% glycerol, 1 mM DTT; both purified
[2] = target: Roco protein from Chlorobium tepidum (CtRoco), full length (Chlorobium tepidum) (UniProt Q8KC98); assay: SEC-MALS; GppNHp-bound (1 mM pre-incubation, 200 µM in buffer); 10 µl of 8 mg ml^-1 injected on a Bio SEC-3 column; buffer as for SEC-SAXS; both purified
[3] = target: Roco protein from Chlorobium tepidum (CtRoco), full length (Chlorobium tepidum) (UniProt Q8KC98); assay: negative-stain EM; CtRoco at 0.01 mg ml^-1 (0.08 µM) pre-incubated with 1 mM GDP; uranyl formate stain; class averages; both purified
[4] = target: Roco protein from Chlorobium tepidum (CtRoco), full length (Chlorobium tepidum) (UniProt Q8KC98); assay: negative-stain EM; time-resolved, single turnover: 1 µM CtRoco mixed with 1 µM GTP, samples at 0-4500 s diluted to 0.01 mg ml^-1 right before spotting, 25 °C; both purified
[5] = target: Roco protein from Chlorobium tepidum (CtRoco), full length (Chlorobium tepidum) (UniProt Q8KC98); assay: negative-stain EM; time-resolved, multiple turnover: 1 mM GTP or GppNHp added to 0.01 mg ml^-1 CtRoco, samples taken every 2 min, 25 °C; both purified
[6] = target: Roco protein from Chlorobium tepidum (CtRoco), full length (Chlorobium tepidum) (UniProt Q8KC98); assay: AUC; sedimentation velocity, with 100 µM GppNHp; 20 °C, 20 mM HEPES pH 7.5, 150 mM NaCl, 5 mM MgCl2, 5% glycerol; 0.57 mg ml^-1 (4.5 µM) CtRoco or 0.3 mg ml^-1 (4.6 µM) CtRoc-COR; both purified
[7] = target: CtRoco L487A mutant, full length (Chlorobium tepidum) (UniProt Q8KC98); assay: SEC-SAXS; GppNHp-bound: pre-incubated with 1 mM GppNHp, 200 µM GppNHp in the buffer; 50 µl of 8 mg ml^-1 injected on a Bio SEC-3 column; 20 mM Hepes pH 7.5, 150 mM NaCl, 5 mM MgCl2, 5% glycerol, 1 mM DTT; both purified
[8] = target: CtRoco L487A mutant, full length (Chlorobium tepidum) (UniProt Q8KC98); assay: SEC-SAXS; nucleotide-free protein; 50 µl of 8 mg ml^-1 injected on a Bio SEC-3 column; 20 mM Hepes pH 7.5, 150 mM NaCl, 5 mM MgCl2, 5% glycerol, 1 mM DTT; mass from Porod volume; both purified
[9] = target: CtRoco L487A mutant, full length (Chlorobium tepidum) (UniProt Q8KC98); assay: SEC-SAXS; GDP-bound: pre-incubated with 1 mM GDP, 200 µM GDP in the buffer; 50 µl of 8 mg ml^-1 injected on a Bio SEC-3 column; 20 mM Hepes pH 7.5, 150 mM NaCl, 5 mM MgCl2, 5% glycerol, 1 mM DTT; both purified
[10] = target: Roc-COR domain construct of the Chlorobium tepidum Roco protein (CtRoc-COR) (Chlorobium tepidum) (UniProt Q8KC98); assay: SEC-MALS; GppNHp-bound (1 mM pre-incubation, 200 µM in buffer); 10 µl of 8 mg ml^-1 injected on a Bio SEC-3 column; buffer as for SEC-SAXS; both purified
[11] = target: Roc-COR domain construct of the Chlorobium tepidum Roco protein (CtRoc-COR) (Chlorobium tepidum) (UniProt Q8KC98); assay: AUC; sedimentation velocity, with 100 µM GppNHp; 20 °C, 20 mM HEPES pH 7.5, 150 mM NaCl, 5 mM MgCl2, 5% glycerol; 0.57 mg ml^-1 (4.5 µM) CtRoco or 0.3 mg ml^-1 (4.6 µM) CtRoc-COR; both purified

binding [1]: binds
binding [2]: binds
binding [3]: binds
binding [4]: binds
binding [5]: binds weakly
binding [6]: binds
B1: Roco protein from Chlorobium tepidum (CtRoco), full length (natural protein, UniProt Q8KC98 1-1102, looked up)
chain: MSDLDVIRQIEQELGMQLEPVDKLKWYSKGYKLDKDQRVTAIGLYDCGSDTLDRIIQPLESLKSLSELSLSSNQITDISPLASLNSLSMLWLDRNQITDIAPLASLNSLSMLWLFGNKISDIAPLESLKSLTELQLSSNQITDIAPLASLKSLTELSLSGNNISDIAPLESLKSLTELSLSSNQITDIAPLASLKSLTELSLSSNQISDIAPLESLKSLTELQLSRNQISDIAPLESLKSLTELQLSSNQITDIAPLASLKSLTELQLSRNQISDIAPLESLNSLSKLWLNGNQITDIAPLASLNSLTELELSSNQITDIAPLASLKSLSTLWLSSNQISDIAPLASLESLSELSLSSNQISDISPLASLNSLTGFDVRRNPIKRLPETITGFDMEILWNDFSSSGFITFFDNPLESPPPEIVKQGKEAVRQYFQSIEEARSKGEALVHLQEIKVHLIGDGMAGKTSLLKQLIGETFDPKESQTHGLNVVTKQAPNIKGLENDDELKECLFHFWDFGGQEIMHASHQFFMTRSSVYMLLLDSRTDSNKHYWLRHIEKYGGKSPVIVVMNKIDENPSYNIEQKKINERFPAIENRFHRISCKNGDGVESIAKSLKSAVLHPDSIYGTPLAPSWIKVKEKLVEATTAQRYLNRTEVEKICNDSGITDPGERKTLLGYLNNLGIVLYFEALDLSEIYVLDPHWVTIGVYRIINSSKTKNGHLNTSALGYILNEEQIRCDEYDPAKNNKFTYTLLEQRYLLDIMKQFELCYDEGKGLFIIPSNLPTQIDNEPEITEGEPLRFIMKYDYLPSTIIPRLMIAMQHQILDRMQWRYGMVLKSQDHEGALAKVVAETKDSTITIAIQGEPRCKREYLSIIWYEIKKINANFTNLDVKEFIPLPGHPDELVEYKELLGLEKMGRDEYVSGKLEKVFSVSKMLDSVISKEERNKERLMGDINIKLENIGNPTIPIHQQVEVNVSQETVQHVENLQGFFENLKADILREAELEIDDPKERKRLANELELAENAITKMDAAVKSGKNKLKPDVKDRLGEFIDNLANENSRLRKGIALVMNGAEKVQKLARYYNNVAPFFDLPSVPPVLLGKEKT
notes: Roco protein from Chlorobium tepidum (CtRoco), a.a; 1-1102: LRR domain (1-411), Roc-COR module (412-946), C-terminal region (947-1102); also called CtRoco wt; C. tepidum Roco protein; source: E. coli BL21 (DE3), purified (Ni-NTA IMAC, EDTA treatment, Superdex S200 SEC)

binding [7]: binds
binding [8]: binds
binding [9]: binds
B2: CtRoco L487A mutant, full length (natural protein, Chlorobium tepidum, UniProt Q8KC98 1-1102, looked up)
chain: B1 chain with L487A
notes: Roco protein from Chlorobium tepidum (CtRoco), a.a; 1-1102, with L487A (analogue of LRRK2 I1371V); also called L487A CtRoco

binding [10]: binds weakly
binding [11]: binds weakly
B3: Roc-COR domain construct of the Chlorobium tepidum Roco protein (CtRoc-COR) (domain or fragment, UniProt Q8KC98 412-946, looked up)
chain: DNPLESPPPEIVKQGKEAVRQYFQSIEEARSKGEALVHLQEIKVHLIGDGMAGKTSLLKQLIGETFDPKESQTHGLNVVTKQAPNIKGLENDDELKECLFHFWDFGGQEIMHASHQFFMTRSSVYMLLLDSRTDSNKHYWLRHIEKYGGKSPVIVVMNKIDENPSYNIEQKKINERFPAIENRFHRISCKNGDGVESIAKSLKSAVLHPDSIYGTPLAPSWIKVKEKLVEATTAQRYLNRTEVEKICNDSGITDPGERKTLLGYLNNLGIVLYFEALDLSEIYVLDPHWVTIGVYRIINSSKTKNGHLNTSALGYILNEEQIRCDEYDPAKNNKFTYTLLEQRYLLDIMKQFELCYDEGKGLFIIPSNLPTQIDNEPEITEGEPLRFIMKYDYLPSTIIPRLMIAMQHQILDRMQWRYGMVLKSQDHEGALAKVVAETKDSTITIAIQGEPRCKREYLSIIWYEIKKINANFTNLDVKEFIPLPGHPDELVEYKELLGLEKMGRDEYVSGKLEKVFSVSKMLDSVISKEERNKER
notes: Roco protein from Chlorobium tepidum (CtRoco), central Roc-COR module, a.a; 412-946; The monomer chain is written; also called CtRoc-COR wt; Roc-COR module; source: E. coli BL21 (DE3), purified (Ni-NTA IMAC, EDTA treatment, Superdex S200 SEC)
